According to patent publication US20170107294A1, “ANTI-CD14 ANTIBODIES AND USES THEREOF” (Nordlandssykehuset HF, priority 2014, published 2017):
Results are given in words; binding and its absence hold for the method and conditions named. Some entries that bind do so weakly or less than the wild type.

By UniProt entry, the sequences of proteins in these tests, tags left out. Where a name states a change or a piece, a line headed by the entry shows the natural chain unless it says otherwise.
UniProt P12318: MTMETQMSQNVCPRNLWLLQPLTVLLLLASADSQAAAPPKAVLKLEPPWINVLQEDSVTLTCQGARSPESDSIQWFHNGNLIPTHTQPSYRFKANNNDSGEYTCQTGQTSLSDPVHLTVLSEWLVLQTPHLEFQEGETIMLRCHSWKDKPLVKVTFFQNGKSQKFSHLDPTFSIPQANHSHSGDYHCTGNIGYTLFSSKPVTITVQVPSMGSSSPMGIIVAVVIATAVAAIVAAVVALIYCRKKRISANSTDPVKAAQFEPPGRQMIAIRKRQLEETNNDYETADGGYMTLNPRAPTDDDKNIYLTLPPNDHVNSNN

Legend:
[1] = molecular target: T1, human FcgRIIa (allotype His131) ectodomains fused to GST (human; Schistosoma japonicum) (UniProt P12318+P08515); assay: ELISA, coated Ab, GST-fused receptor (FIG. 5)
[2] = molecular target: T1, human FcgRIIa (allotype His131) ectodomains fused to GST (human; Schistosoma japonicum); assay: ELISA, coated Ab, GST-fused receptor

Row | binding [1] | binding [2] | Binder
1 | binds | binds | recombinant Mil2 (rMil2), recombinant anti-porcine CD14 IgG2/4 Ab (antibody) heavy: QVRLQQPGAELVRPGASVKLSCKASGYTFTTYWMNWVKQRPEDGLEWIGRIDPYDSETHYNQNFKDKAILTVDKSSSTAYMQLSSLTYEDSAVYYCTRKEGRQWGAYFDYWGQGTTLTVSSASTKGPSVFPLAPCSRSTSESTAALGCLVKDYFPEPVTVSWNSGALTSGVHTFPAVLQSSGLYSLSSVVTVPSSNFGTQTYTCNVDHKPSNTKVDKTVERKCCVECPPCPAPPVAGPSVFLFPPKPKDTLMISRTPEVTCVVVDVSQEDPEVQFNWYVDGVEVHNAKTKPREEQFNSTYRVVSVLTVLHQDWLNGKEYKCKVSNKGLPSSIEKTISKAKGQPREPQVYTLPPSQEEMTKNQVSLTCLVKGFYPSDIAVEWESNGQPENNYKTTPPVLDSDGSFFLYSRLTVDKSRWQEGNVFSCSVMHEALHNHYTQKSLSLSLGK light: DIVMTQSQKFMSTSVGDRVSVTCKASQYVGTNVAWYQQKPGQSPKALIQSASYRCSGVPDRFTGSGSGTDFTLTISNVQSEDLADYFCQQYNTYVTFGGGTKLELKRTVAAPSVFIFPPSDEQLKSGTASVVCLLNNFYPREAKVQWKVDNALQSGNSQESVTEQDSKDSTYSLSSTLTLSKADYEKHKVYACEVTHQGLSSPVTKSFNRGEC
2 | binds | binds | recombinant 18D11 (r18D11), recombinant anti-human CD14 IgG2/4 Ab (antibody) heavy: EVQLVESGGGLMQPKGSLKLSCAASGFTFKTYALNWVRQAPGTGLEWVARIRSKSNNYTTYYADSVKDRFTISRDDSQNMLYLQMNNLKTEDTAMYYCVRPQSGTSFAYWGQGTLVTVSAASTKGPSVFPLAPCSRSTSESTAALGCLVKDYFPEPVTVSWNSGALTSGVHTFPAVLQSSGLYSLSSVVTVPSSNFGTQTYTCNVDHKPSNTKVDKTVERKCCVECPPCPAPPVAGPSVFLFPPKPKDTLMISRTPEVTCVVVDVSQEDPEVQFNWYVDGVEVHNAKTKPREEQFNSTYRVVSVLTVLHQDWLNGKEYKCKVSNKGLPSSIEKTISKAKGQPREPQVYTLPPSQEEMTKNQVSLTCLVKGFYPSDIAVEWESNGQPENNYKTTPPVLDSDGSFFLYSRLTVDKSRWQEGNVFSCSVMHEALHNHYTQKSLSLSLGK light: NIVLTQSPASLAVSLGQRATISCRASESVDSYGNSFMHWYQQKPGQPPKLLIYLASNLESGVPARFSGSGSRTDFTLTIDPVEADDVATYYCQQNNGDPYTFGGGTKLEIIRTVAAPSVFIFPPSDEQLKSGTASVVCLLNNFYPREAKVQWKVDNALQSGNSQESVTEQDSKDSTYSLSSTLTLSKADYEKHKVYACEVTHQGLSSPVTKSFNRGEC
